Source: ChEMBL document CHEMBL1133765, “QSAR model for drug human oral bioavailability” (J Med Chem, 2000)

What was measured:
[1] = octanol/water
[2] = octanol/water, pH 6.5
[3] = octanol/water; remark: listed apart in the source
[4] = octanol/water, pH 6.5; remark: listed apart in the source

Row | SMILES | delta logD [1] | logD [2] | delta logD [3] | logD [4]
1 | COC(=O)C1=C(C)NC(C)=C(C(=O)OC)C1c1ccccc1[N+](=O)[O-] [NIFEDIPINE] | 0 | 0.42 | – | –
2 | Nc1nc2ccc(OC(F)(F)F)cc2s1 [RILUZOLE] | – | – | -0.25 | 1.23
